PubChem BioAssay AID445 (National Center for Advancing Translational Sciences (NCATS), 2006)
The other results are listed elsewhere or left out. The main result of the screen is listed elsewhere. These columns were measured beside it and carry no call. Compounds called inactive in the main read-out are mostly missing here. The note in brackets gives the kind of curve behind each potency; many fits are weak.

experiment: IkB Signaling; settings: ABC-DLBCL IkBa-CBG/CBR dual luciferase ratio (green luciferase fused to IkBa over red control in OCI-Ly3 lymphoma cells), 4 h; measured here: control luc red channel unless noted
Procedure, shortened: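 Curves were fitted separately to fusion (green), unfused (red) and ratio luminescence, then classed by r2, magnitude and activity. Cells: OCI-Ly3, 4 h compound plus doxycycline at 37C; 10 uM MG-132 defined full response.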

Compound	AC50
CCn1nc(C)c(CCN(C)C(=O)Nc2cc(Cl)c(OC)cc2OC)c1C	3.98 µM [rising, single point]
CC(C)c1nn2c(=O)cc(COC(=O)c3cccc(NC(=O)CCc4ccccc4)c3)nc2s1	3.16 µM [falling, partial curve]
O=C(CSc1oc(-c2ccc(F)cc2)nc1S(=O)(=O)c1ccccc1)c1ccc(Cl)cc1	5.01 µM [falling, full curve, poor fit]
CCN(Cc1ccccc1)C(=O)Cn1c(=O)cc(C)c2c(C)nn(-c3cccc(F)c3)c21	25.1 µM [falling, single point]
CC(C)c1ccc(NC(=O)C2CCC(CNS(=O)(=O)c3ccc4c(c3)CCCC(=O)N4)CC2)cc1 (configuration not stated)	15.8 µM [falling, partial curve]
Cc1ccc(N(CC(=O)Nc2ccc(F)c(Cl)c2)S(=O)(=O)c2c(C)noc2C)cc1	10 µM [falling, partial curve]
COc1ccc(S(=O)(=O)N2CCCCC2)cc1C(=O)NC1CCS(=O)(=O)C1 (configuration not stated)	10 µM [rising, partial curve, poor fit]
O=C(Nc1ccccc1)c1ccc(Cl)c(S(=O)(=O)Nc2ccccc2)c1	39.8 µM [falling, single point]
Cc1ccc(C(=O)c2cn(Cc3ccccc3)c3c(F)cc(F)cc3c2=O)cc1	20 µM [falling, single point]
Cc1cccc(NS(=O)(=O)c2ccc(C)c(C(=O)OCC(=O)Nc3cc(C)on3)c2)c1	31.6 µM [falling, partial curve]
COC(=O)c1ccc2c(c1)N(CC(=O)Nc1ccc(C)c(C)c1)C(=O)c1ccccc1S2	3.16 µM [falling, full curve]
Cc1csc(NC(=O)C2CCCN(S(=O)(=O)c3ccc(Br)s3)C2)n1 (configuration not stated)	3.16 µM [falling, full curve]
Oc1ccccc1-c1cc(-c2ccc3c(c2)OCCO3)n[nH]1	0.00316 µM [falling, full curve, poor fit]
Cc1ccc2nc(Nc3cccc(C(F)(F)F)c3)c3nnnn3c2c1	0.2 µM [falling, full curve]
CN(C)S(=O)(=O)c1cccc(C(=O)OCC(=O)Nc2sccc2C(N)=O)c1	25.1 µM [falling, partial curve]
O=C(Nc1cnc2ccccc2c1)C1COc2ccccc2O1 (configuration not stated)	10 µM [falling, partial curve]
CCCCS/C(=C(/C#N)C(N)=O)c1cc2c([nH]1)CCCC2	25.1 µM [falling, single point]

Reprinted at random: two entries already listed, in no set order.
Compound	AC50
CCCCS/C(=C(/C#N)C(N)=O)c1cc2c([nH]1)CCCC2	25.1 µM [falling, single point]
Oc1ccccc1-c1cc(-c2ccc3c(c2)OCCO3)n[nH]1	0.00316 µM [falling, full curve, poor fit]
